Shown are results outside the selection of targets with a hit, which stands elsewhere. This is a noisy data set. The entries are a selection whose mix differs from that of the whole data set.

By UniProt entry, the sequences of proteins in these tests, tags left out. Where a name states a change or a piece, a line headed by the entry shows the natural chain unless it says otherwise.
UniProt P33991: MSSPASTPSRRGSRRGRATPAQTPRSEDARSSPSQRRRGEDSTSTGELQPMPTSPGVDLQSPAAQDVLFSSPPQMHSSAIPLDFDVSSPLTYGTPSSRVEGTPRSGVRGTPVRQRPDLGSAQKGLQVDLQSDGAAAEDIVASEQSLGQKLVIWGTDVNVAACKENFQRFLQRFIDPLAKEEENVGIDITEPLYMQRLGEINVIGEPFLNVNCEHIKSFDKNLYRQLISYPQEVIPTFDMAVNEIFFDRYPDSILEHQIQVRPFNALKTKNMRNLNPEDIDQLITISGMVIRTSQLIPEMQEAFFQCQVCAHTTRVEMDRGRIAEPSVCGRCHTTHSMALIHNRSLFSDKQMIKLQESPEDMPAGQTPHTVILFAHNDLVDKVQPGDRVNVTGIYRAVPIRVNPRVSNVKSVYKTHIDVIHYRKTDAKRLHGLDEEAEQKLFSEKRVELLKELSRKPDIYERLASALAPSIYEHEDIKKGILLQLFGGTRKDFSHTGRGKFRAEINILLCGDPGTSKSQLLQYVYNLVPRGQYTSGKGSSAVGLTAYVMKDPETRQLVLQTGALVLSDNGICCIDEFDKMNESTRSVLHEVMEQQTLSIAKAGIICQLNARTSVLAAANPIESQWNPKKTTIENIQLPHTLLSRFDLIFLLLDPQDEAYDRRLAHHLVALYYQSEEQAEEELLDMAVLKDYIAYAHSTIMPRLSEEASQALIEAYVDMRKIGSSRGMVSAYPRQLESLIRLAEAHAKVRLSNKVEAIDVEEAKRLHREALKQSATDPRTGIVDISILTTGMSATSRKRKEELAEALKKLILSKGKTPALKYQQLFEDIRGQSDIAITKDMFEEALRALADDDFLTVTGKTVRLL
UniProt P41250: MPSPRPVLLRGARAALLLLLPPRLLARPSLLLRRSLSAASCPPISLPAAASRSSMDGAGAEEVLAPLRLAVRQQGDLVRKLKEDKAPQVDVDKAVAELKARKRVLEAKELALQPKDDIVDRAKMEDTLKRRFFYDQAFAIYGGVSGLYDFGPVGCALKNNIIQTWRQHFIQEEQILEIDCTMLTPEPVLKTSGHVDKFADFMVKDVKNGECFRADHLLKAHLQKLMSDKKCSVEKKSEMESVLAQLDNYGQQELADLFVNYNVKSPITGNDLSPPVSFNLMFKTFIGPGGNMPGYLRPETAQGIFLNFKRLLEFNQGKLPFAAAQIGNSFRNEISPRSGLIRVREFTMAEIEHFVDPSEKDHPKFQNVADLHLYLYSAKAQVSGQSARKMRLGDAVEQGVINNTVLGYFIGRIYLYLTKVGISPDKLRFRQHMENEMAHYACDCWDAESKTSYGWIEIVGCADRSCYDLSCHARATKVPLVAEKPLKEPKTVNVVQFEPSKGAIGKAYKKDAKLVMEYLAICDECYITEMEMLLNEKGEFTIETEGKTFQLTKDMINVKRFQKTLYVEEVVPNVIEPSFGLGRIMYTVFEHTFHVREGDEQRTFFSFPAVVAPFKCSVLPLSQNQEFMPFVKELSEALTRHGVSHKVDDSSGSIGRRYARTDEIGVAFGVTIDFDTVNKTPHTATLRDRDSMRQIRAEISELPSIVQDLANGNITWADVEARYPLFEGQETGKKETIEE
UniProt P33981: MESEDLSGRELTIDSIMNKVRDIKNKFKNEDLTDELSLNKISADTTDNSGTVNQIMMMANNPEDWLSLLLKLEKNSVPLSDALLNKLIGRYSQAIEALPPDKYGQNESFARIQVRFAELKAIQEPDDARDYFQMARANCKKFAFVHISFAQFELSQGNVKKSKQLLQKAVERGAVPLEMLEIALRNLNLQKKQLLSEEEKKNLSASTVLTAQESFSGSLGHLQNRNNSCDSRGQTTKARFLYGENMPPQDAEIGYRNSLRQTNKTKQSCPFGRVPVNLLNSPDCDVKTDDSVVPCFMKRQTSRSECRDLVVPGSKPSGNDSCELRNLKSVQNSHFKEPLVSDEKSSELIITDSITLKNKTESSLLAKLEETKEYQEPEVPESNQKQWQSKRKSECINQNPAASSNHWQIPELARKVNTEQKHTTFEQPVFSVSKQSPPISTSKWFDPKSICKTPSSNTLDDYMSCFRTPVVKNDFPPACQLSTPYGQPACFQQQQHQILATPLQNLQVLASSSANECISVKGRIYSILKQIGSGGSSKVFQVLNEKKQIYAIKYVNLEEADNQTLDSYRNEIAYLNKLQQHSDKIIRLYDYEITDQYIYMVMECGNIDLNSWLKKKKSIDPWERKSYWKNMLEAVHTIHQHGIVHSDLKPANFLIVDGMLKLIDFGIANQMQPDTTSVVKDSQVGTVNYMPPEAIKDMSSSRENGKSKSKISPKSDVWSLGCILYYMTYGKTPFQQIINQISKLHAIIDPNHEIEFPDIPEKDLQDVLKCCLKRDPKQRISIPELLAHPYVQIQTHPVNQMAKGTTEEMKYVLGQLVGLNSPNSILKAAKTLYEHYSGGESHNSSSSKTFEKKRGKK
UniProt P35579, whole entry, looked up: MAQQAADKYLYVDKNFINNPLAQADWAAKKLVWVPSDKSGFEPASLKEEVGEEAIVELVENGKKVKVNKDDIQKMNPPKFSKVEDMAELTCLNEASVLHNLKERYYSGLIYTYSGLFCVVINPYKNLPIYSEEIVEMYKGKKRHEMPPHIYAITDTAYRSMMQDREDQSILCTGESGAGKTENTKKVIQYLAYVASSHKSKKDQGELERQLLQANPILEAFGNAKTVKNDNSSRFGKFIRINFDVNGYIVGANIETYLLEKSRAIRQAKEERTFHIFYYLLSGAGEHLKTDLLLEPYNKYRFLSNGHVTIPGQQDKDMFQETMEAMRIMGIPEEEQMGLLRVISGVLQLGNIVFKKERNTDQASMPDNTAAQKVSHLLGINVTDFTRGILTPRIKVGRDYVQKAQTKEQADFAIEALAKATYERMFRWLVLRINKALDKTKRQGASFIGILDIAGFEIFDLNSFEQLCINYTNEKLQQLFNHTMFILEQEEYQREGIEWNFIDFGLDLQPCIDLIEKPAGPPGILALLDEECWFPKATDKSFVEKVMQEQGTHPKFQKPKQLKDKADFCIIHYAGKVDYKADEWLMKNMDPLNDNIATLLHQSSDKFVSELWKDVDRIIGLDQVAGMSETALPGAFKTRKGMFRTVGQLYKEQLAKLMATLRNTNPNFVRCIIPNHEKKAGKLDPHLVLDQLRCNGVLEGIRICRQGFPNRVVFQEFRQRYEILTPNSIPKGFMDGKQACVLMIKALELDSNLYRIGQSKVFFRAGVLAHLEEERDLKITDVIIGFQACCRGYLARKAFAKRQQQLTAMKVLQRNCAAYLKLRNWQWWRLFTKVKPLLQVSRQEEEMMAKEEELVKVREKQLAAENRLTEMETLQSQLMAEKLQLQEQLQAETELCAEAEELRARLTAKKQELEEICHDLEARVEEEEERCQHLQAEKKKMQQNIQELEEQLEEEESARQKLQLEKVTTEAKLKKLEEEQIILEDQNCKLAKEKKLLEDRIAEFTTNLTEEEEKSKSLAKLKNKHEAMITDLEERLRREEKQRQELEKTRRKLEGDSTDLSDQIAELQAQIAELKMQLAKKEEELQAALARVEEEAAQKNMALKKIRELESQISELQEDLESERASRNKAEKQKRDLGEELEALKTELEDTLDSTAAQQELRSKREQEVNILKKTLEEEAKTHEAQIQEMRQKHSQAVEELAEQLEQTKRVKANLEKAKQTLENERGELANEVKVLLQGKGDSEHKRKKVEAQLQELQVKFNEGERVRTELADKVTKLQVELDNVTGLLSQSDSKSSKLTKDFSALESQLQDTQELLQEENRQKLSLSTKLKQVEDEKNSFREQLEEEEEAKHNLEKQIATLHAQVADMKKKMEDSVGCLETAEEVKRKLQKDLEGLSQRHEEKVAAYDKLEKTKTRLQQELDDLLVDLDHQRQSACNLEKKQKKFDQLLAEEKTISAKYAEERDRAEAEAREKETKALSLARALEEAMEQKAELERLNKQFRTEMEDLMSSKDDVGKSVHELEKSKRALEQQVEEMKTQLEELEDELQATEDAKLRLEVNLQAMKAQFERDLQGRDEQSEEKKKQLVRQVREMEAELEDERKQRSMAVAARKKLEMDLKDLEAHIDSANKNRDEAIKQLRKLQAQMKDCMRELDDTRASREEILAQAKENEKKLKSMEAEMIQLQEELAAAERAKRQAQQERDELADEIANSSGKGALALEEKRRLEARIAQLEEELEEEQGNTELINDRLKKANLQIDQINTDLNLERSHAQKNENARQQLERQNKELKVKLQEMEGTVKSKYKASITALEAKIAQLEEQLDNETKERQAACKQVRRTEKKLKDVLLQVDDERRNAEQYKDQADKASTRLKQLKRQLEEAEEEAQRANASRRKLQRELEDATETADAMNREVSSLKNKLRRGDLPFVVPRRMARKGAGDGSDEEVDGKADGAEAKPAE
UniProt P37802: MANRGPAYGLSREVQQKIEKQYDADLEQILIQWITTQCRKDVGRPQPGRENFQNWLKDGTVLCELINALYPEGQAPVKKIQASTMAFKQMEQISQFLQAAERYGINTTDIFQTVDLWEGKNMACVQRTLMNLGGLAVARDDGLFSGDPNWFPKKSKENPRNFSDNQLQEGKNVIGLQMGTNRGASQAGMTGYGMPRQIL
UniProt P41743, whole entry: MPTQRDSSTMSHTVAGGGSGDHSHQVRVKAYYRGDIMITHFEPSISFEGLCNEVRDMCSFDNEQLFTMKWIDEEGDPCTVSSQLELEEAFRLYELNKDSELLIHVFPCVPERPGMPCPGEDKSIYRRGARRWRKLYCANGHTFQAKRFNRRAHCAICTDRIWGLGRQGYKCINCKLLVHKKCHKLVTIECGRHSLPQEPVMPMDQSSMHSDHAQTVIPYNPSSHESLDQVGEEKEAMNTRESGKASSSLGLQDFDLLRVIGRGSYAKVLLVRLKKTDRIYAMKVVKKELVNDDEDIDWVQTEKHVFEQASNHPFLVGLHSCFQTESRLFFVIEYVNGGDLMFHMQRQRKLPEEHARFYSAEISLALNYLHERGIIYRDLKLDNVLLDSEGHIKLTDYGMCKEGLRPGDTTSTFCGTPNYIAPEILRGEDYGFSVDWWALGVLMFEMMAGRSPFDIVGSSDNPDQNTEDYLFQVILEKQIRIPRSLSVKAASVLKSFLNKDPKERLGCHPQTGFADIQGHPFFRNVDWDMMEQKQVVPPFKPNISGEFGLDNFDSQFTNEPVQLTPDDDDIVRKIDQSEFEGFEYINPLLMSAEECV
UniProt P36776: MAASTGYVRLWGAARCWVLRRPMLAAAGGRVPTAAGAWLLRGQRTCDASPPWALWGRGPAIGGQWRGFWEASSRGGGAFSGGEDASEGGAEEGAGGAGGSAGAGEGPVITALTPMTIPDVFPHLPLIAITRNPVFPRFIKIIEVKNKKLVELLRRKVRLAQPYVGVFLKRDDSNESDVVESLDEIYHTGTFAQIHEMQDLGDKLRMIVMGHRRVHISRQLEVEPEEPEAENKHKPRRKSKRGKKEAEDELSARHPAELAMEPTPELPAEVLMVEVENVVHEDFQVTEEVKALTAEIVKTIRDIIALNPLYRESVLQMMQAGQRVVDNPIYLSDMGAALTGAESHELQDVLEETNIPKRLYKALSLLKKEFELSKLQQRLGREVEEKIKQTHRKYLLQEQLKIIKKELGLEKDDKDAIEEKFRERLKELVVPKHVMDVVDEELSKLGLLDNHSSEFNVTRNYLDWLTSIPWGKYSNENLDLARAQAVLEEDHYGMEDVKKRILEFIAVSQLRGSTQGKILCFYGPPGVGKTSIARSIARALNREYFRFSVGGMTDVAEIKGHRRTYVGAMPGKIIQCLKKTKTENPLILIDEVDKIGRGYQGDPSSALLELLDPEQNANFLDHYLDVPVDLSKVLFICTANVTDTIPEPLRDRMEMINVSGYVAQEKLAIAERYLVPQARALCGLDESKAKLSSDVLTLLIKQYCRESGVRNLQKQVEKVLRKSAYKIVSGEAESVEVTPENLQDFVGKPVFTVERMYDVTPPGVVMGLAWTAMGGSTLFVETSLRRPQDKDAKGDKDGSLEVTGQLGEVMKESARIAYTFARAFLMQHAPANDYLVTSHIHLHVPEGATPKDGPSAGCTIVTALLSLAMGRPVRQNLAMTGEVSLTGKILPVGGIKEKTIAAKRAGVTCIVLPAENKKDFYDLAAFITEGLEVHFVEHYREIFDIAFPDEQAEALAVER
UniProt P37268: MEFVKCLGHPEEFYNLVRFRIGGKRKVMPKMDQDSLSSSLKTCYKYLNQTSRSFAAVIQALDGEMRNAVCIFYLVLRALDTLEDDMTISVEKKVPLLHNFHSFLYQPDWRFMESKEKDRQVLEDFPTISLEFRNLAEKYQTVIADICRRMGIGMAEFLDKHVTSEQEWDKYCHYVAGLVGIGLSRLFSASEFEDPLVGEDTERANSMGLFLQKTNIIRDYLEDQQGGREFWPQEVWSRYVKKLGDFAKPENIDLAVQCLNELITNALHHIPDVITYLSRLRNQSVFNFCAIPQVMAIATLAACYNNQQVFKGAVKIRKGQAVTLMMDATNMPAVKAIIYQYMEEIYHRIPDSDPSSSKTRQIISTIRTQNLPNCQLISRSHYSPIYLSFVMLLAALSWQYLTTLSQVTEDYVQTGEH

Compound in the test: COC(=O)/C=C/c1ccccc1 [methyl cinnamate]
Put plainly: log2 ratio of iodoacetamide-alkyne labeling of the cysteine site, DMSO over compound (competition); higher = stronger covalent engagement of the cysteine by the compound, active = 1 or more. The following applies: 500 µM; treatment time 1 h; system: HEK293T cell lysate. A digest of the protocol:
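HEK293T lysate (2 mg/mL) was incubated with electrophile (500 µM) or vehicle for 1 h at ambient temperature and then with iodoacetamide alkyne for 1 h. Labelled proteins were clicked to sCIP-TMT reagents, pooled, digested, enriched on streptavidin and measured by Orbitrap Eclipse LC-MS/MS with FAIMS, with FragPipe quantification. The per-cysteine log2 competition ratio is mean control-channel reporter intensity over mean compound-channel reporter intensity. Across three replicates with duplicate channels, cysteines quantified in only one replicate were excluded.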
With NUP62 C506 (UniProt P37198), the “log2 ratio of iodoacetamide-alkyne labeling” value (from here on “log2 ratio”) was inactive: 0.24.

As for STAT1 C108 (UniProt P42224), the “log2 ratio” value is inactive: 0.19. Turning to HNRNPH1 C34 (UniProt P31943), the “log2 ratio” value was inactive: 0.13. Regarding MCM4 C509 (UniProt P33991), the “log2 ratio” value was inactive: 0.189. With HSPA4 C380 (UniProt P34932), the “log2 ratio” value was inactive: -0.0411.

Regarding MCM5 C355 (UniProt P33992), the “log2 ratio” value was inactive: 0.211.

In the case of UniProt P41250_C211, the “log2 ratio” value was inactive: 0.0579. For the target MDH2 C93 (UniProt P40926), the “log2 ratio” value is inactive: 0.189.

With UQCRC1 C268 (UniProt P31930), the “log2 ratio” value was inactive: 0.0729.

As for POLR2B C1093 (UniProt P30876), the “log2 ratio” value is inactive: 0.0597.

Turning to LRPPRC C927 (UniProt P42704), the “log2 ratio” value is inactive: -0.0642. For the target TTK C395 (UniProt P33981), the “log2 ratio” value is inactive: 0.275.

Regarding ADD1 C525 (UniProt P35611), the “log2 ratio” value was inactive: 0.196. On to HSPA9 C66 (UniProt P38646), for which the “log2 ratio” value is inactive: 0.148. Turning to ALDH1B1 C179 (UniProt P30837), the “log2 ratio” value was inactive: -0.0202. As to MYH9 C1379 (UniProt P35579), the “log2 ratio” value is inactive: 0.179.

With IARS C185 (UniProt P41252), the “log2 ratio” value is inactive: -0.0176. ALDH1B1 C169 (UniProt P30837): the “log2 ratio” value was inactive: 0.216. As for HSPA4 C310 (UniProt P34932), the figure is inactive: 0.104; as for DUT C222 (UniProt P33316), inactive: 0.183. Turning to SRI C194 (UniProt P30626), the “log2 ratio” value was inactive: -0.0721. Take HSPA9 C317 (UniProt P38646): the “log2 ratio” value is inactive: 0.186. As for TAGLN2 C124 (UniProt P37802), the figure is inactive: 0.204.

As to CASP3 C170 (UniProt P42574), the “log2 ratio” value was inactive: 0.15. The result for IARS C526 (UniProt P41252) reads inactive: 0.00788; that for DNAJA1 C302 (UniProt P31689), inactive: 0.263. As for PPP2R1A C390 (UniProt P30153), the “log2 ratio” value is inactive: 0.273. In the case of UniProt P41743_C595, the “log2 ratio” value is inactive: 0.0809.

Turning to MPI C11 (UniProt P34949), the “log2 ratio” value is inactive: -0.00537.

Consider MATR3 C806 (UniProt P43243), for which the “log2 ratio” value is inactive: -0.0413. For the target LONP1 C637 (UniProt P36776), the “log2 ratio” value was inactive: 0.247.

FDFT1 C6 (UniProt P37268): the “log2 ratio” value is inactive: 0.226.

Take ACAA2 C116 (UniProt P42765): the “log2 ratio” value was inactive: 0.405.

With PPP1CC C127 (UniProt P36873), the “log2 ratio” value was inactive: 0.0221. For the target MAT2A C104 (UniProt P31153), the “log2 ratio” value is inactive: -0.16. Turning to HNRNPH1 C267 (UniProt P31943), the “log2 ratio” value was inactive: 0.0252. Take EIF2S3 C269 (UniProt P41091): the “log2 ratio” value is inactive: 0.0351.
